According to the supplement of paper PMC10849652:
The list shows a part of the results.

Chains of the proteins cited; added tags and fusions are not shown. Lines headed by an entry give the natural chain unless they say otherwise; changes in a name come on top.
UniProt O75865, whole entry, looked up: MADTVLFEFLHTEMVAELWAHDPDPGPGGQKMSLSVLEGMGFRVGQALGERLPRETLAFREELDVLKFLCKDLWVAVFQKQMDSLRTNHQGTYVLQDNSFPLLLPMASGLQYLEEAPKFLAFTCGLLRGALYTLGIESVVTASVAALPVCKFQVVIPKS
UniProt Q9C037: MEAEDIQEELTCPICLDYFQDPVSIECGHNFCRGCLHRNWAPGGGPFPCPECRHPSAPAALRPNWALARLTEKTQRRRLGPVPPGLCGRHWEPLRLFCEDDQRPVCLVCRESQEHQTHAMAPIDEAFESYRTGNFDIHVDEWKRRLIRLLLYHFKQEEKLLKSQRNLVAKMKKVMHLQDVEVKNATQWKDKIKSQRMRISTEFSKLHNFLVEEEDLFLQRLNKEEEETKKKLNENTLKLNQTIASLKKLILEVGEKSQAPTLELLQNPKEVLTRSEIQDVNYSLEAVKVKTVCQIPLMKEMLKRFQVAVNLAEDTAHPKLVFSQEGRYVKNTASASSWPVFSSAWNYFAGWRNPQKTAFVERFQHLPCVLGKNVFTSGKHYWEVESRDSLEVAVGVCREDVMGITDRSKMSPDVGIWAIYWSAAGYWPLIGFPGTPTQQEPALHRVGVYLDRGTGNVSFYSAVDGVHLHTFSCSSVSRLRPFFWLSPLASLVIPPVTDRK
UniProt P33981: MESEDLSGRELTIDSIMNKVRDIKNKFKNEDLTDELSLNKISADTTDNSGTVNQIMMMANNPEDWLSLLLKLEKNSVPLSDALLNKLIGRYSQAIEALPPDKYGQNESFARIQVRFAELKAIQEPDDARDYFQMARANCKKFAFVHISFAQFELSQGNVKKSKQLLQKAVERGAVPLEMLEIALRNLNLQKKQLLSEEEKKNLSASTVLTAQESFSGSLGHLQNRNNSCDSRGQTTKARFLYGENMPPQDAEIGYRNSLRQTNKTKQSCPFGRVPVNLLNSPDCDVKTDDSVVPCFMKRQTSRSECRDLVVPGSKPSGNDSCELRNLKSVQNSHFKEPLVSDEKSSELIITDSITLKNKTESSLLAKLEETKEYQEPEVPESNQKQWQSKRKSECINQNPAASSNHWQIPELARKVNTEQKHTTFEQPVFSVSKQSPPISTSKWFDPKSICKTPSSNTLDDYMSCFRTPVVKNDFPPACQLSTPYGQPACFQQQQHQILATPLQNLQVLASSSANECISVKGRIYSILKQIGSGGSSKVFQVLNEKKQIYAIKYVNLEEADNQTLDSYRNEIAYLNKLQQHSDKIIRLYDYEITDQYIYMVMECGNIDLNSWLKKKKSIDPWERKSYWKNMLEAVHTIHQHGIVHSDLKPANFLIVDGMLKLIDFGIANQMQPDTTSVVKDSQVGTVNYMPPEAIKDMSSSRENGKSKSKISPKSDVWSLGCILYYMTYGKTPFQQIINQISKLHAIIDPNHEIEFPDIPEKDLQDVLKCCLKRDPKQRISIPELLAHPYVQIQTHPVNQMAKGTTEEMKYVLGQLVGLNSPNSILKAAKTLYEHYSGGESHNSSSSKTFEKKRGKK
UniProt Q15714: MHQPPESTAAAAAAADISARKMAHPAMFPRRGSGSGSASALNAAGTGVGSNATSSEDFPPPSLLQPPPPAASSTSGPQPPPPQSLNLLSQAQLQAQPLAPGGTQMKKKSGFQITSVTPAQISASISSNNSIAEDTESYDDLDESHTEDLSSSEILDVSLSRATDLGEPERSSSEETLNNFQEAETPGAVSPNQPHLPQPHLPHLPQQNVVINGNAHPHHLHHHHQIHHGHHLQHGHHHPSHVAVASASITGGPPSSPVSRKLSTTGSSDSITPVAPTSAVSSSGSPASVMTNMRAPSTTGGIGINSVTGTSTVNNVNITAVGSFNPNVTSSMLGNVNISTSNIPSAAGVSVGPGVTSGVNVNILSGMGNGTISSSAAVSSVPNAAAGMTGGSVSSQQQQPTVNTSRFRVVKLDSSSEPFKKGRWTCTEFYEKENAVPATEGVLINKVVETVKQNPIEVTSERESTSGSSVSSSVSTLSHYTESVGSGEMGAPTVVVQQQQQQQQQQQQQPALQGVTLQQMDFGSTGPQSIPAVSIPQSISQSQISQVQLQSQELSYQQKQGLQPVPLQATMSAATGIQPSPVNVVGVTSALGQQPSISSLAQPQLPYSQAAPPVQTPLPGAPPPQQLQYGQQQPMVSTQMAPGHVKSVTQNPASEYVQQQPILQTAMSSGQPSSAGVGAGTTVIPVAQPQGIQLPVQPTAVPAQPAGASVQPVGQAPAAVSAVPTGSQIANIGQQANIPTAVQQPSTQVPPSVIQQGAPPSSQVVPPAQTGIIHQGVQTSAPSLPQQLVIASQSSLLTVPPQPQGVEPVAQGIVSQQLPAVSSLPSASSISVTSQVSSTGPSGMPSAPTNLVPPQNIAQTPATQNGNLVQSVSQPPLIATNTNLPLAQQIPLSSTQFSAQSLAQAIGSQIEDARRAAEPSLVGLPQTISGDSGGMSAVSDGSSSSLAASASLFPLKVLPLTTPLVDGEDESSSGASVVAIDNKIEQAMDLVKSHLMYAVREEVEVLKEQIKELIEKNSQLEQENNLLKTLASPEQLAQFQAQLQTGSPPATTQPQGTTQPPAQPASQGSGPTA
UniProt Q7Z2T5: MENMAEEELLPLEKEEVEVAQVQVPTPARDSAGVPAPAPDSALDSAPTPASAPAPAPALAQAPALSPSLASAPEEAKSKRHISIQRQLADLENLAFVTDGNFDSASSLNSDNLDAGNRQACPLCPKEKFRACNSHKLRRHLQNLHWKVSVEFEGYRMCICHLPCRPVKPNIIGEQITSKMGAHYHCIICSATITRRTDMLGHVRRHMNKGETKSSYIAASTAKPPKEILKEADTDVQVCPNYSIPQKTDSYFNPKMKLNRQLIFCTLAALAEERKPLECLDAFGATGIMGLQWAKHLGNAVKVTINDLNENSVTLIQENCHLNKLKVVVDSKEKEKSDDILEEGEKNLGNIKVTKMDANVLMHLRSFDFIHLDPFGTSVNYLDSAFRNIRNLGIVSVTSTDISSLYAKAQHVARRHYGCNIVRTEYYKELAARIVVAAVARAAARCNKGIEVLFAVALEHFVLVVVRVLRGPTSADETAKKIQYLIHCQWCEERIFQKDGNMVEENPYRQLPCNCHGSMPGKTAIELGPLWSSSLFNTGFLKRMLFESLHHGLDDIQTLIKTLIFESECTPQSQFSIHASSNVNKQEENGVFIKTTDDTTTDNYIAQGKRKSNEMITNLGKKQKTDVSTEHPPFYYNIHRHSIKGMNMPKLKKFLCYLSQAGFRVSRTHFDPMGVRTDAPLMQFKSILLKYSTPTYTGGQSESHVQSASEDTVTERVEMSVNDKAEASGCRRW
UniProt O43617, whole entry, looked up: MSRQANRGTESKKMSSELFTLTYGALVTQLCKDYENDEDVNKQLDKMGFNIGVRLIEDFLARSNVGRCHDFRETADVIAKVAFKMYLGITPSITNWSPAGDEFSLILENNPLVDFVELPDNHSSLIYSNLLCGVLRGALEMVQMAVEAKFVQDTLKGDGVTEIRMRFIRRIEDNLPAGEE
UniProt Q9Y2L5: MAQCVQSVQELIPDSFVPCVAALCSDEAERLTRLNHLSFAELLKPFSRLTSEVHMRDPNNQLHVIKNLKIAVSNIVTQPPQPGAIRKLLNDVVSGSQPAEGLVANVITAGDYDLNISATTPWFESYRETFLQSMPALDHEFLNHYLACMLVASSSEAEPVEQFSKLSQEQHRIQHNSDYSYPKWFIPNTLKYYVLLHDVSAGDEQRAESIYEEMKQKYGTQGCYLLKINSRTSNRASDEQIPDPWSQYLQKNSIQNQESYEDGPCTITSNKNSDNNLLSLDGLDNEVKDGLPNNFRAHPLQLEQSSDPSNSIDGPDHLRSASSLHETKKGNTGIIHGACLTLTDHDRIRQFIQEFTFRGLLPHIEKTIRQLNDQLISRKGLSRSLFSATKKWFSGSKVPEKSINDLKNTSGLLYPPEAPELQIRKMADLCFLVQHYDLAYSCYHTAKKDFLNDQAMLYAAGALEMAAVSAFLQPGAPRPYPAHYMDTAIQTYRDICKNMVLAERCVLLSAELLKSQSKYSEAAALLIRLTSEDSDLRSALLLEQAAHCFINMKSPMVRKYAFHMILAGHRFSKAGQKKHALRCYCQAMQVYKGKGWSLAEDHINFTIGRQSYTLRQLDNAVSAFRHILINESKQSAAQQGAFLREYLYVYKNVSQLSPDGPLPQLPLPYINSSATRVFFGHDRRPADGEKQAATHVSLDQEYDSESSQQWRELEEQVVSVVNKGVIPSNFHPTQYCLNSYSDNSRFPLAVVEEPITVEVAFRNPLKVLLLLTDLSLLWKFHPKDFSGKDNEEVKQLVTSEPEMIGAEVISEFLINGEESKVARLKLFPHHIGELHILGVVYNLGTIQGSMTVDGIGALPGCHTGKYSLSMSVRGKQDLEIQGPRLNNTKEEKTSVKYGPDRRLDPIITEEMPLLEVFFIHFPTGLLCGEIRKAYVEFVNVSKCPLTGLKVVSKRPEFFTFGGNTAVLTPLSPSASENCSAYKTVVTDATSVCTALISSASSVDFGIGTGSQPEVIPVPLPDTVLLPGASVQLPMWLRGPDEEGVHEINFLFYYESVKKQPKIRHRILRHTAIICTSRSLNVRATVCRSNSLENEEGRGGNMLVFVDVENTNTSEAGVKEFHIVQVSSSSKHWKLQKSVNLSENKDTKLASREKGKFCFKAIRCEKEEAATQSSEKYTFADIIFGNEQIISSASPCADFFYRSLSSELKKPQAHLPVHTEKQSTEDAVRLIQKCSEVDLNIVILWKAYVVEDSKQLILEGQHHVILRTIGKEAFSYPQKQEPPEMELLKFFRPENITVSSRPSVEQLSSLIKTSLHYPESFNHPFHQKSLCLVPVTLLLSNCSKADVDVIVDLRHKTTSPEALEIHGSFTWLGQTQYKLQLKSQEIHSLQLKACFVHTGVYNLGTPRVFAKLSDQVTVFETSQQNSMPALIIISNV
UniProt Q8IUR0, whole entry, looked up: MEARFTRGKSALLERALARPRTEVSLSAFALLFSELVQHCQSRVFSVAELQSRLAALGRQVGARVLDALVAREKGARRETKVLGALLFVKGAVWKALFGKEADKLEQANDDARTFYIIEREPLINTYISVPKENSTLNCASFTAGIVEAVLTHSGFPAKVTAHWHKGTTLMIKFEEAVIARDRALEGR
UniProt Q86SZ2: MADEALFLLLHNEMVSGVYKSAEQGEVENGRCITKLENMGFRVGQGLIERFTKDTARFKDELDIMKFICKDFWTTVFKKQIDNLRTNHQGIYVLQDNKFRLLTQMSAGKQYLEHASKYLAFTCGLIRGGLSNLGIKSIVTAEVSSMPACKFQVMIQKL
UniProt Q8IZ69: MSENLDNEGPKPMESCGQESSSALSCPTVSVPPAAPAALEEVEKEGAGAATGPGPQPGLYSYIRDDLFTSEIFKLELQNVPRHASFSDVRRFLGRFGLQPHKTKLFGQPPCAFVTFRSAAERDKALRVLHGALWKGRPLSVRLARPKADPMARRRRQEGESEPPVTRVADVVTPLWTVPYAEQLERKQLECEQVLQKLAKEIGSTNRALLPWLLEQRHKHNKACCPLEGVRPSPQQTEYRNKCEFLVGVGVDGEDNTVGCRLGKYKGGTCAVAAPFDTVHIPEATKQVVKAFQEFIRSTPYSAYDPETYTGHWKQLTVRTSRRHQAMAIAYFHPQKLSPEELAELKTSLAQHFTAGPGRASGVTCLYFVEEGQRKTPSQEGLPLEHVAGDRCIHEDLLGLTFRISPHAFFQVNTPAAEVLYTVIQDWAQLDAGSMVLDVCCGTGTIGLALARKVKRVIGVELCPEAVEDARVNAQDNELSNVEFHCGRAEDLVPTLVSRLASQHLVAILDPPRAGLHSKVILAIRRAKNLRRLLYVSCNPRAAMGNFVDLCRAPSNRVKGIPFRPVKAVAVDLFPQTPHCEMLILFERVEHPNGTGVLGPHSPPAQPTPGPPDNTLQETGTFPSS
UniProt Q96GJ1: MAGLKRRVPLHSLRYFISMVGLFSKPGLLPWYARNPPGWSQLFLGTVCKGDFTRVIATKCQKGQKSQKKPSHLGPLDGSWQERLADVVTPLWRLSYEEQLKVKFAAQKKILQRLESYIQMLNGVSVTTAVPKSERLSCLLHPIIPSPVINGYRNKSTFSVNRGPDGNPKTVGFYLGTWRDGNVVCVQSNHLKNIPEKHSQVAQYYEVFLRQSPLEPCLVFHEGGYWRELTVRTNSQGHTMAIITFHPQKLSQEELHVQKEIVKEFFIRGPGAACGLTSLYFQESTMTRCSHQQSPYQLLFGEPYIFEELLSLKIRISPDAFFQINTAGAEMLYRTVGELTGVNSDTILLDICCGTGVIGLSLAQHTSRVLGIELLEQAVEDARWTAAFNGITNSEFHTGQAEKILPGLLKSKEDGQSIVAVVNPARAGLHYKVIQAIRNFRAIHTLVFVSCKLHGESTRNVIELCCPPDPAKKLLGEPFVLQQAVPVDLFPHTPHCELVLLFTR

Key:
Assay in all cases: log2 fold change, soluble protein after heating vs DMSO (PISA); higher = thermal stabilisation; K562 lysate, 10 uM; active = over 0.2 and 3.5 SD of the protein, either way, in both replicates (recomputed)
ibrutinib = compound: C=CC(=O)N1CCC[C@@H](n2nc(-c3ccc(Oc4ccccc4)cc3)c3c(N)ncnc32)C1 [ibrutinib]
Method in brief: (§1)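 The values are log-two fold changes in thermal stability compared with solvent controls and come from duplicates. They were obtained by TMTpro 16plex LC-MS/MS, with channel sums equalised, on the supernatant after 21,000xg for 90 min. That supernatant came from crude K562 extract at 1 mg/mL protein treated with 10 μM compound for 30 min, heated for 3 min across 48°C-58°C, pooled and brought to 0.5% NP-40 at 4°C.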

[1] = compound: CC(=O)c1cnc2ccc(-c3cc(Cl)c(O)c(Cl)c3)nc2c1N[C@H]1CC[C@H](CN(C)C)CC1
Method in brief: as §1

ralimetinib = compound: CC(C)(C)Cn1c(N)nc2ccc(-c3[nH]c(C(C)(C)C)nc3-c3ccc(F)cc3)nc21 [ralimetinib]
Method in brief: as §1

[2] = compound: CC(C)(O)CC(=O)NCCn1ccc2ncnc(Nc3ccc(Oc4cccc(C(F)(F)F)c4)c(Cl)c3)c21
Method in brief: as §1

[3] = compound: CC(C)C1=C2N=C(C=C(N2N=C1)NCC3=CC=CC=C3)NCCCCCCN
Method in brief: as §1

[4] = compound: CC1=C(C(CC(=O)N1)C2=CC=C(C=C2)C(F)(F)F)C(=O)NC3=C(C=C4C(=C3)C=NN4)F
Method in brief: as §1

[5] = compound: CC1=C(C2=C(C=C1)C(=O)C3=CC=CC=C3N2CCCN)C
Method in brief: as §1

[6] = compound: CC1=C(C=C(C=C1)NC(=O)C2=CC(=CC=C2)C(C)(C)C#N)NC3=CC4=C(C=C3)N=CN(C4=O)C
Method in brief: as §1

[7] = compound: CC1=C(C=C(C=C1)NC(=O)C2=CC(=CC=C2)N(C)C)NC(=O)C3=CC=C(C=C3)O
Method in brief: as §1

[8] = compound: CC1=CC=C(C=C1)SC2=C3C=C(SC3=CN=C2)C(=O)N
Method in brief: as §1

Row | Target | log2 fold change (ibrutinib) | log2 fold change [1] | log2 fold change (ralimetinib) | log2 fold change [2] | log2 fold change [3] | log2 fold change [4] | log2 fold change [5] | log2 fold change [6] | log2 fold change [7] | log2 fold change [8]
1 | TTC4 (UniProt O95801) | inactive: 0.002 | inactive: 0.015 | inactive: 0.005 | inactive: 0.011 | inactive: 0.03 | inactive: -0.029 | inactive: -0.033 | inactive: 0.026 | inactive: 0.029 | inactive: 0
2 | TSEN54 (UniProt Q7Z6J9) | inactive: 0.075 | inactive: -0.02 | inactive: 0.059 | inactive: -0.036 | inactive: -0.048 | inactive: 0.053 | inactive: -0.012 | inactive: 0.018 | inactive: 0.003 | inactive: -0.096
3 | TRPT1 isoform 4 (UniProt Q86TN4) | inactive: 0.269 | inactive: -0.047 | inactive: -0.01 | inactive: 0.072 | inactive: 0.078 | inactive: 0.133 | inactive: 0.035 | inactive: 0.004 | inactive: -0.056 | inactive: -0.064
4 | TRAFD1 (UniProt O14545) | inactive: -0.026 | inactive: -0.032 | inactive: 0.048 | inactive: 0.004 | inactive: -0.049 | inactive: -0.062 | inactive: 0.049 | inactive: 0.053 | inactive: -0.031 | inactive: -0.035
5 | TSFM (UniProt P43897) | inactive: 0.004 | inactive: -0.05 | inactive: 0.03 | inactive: 0.026 | inactive: 0.015 | inactive: -0.024 | inactive: -0.003 | inactive: 0.116 | inactive: 0.017 | inactive: -0.063
6 | TRAF6 (UniProt Q9Y4K3) | inactive: 0.03 | inactive: 0.014 | inactive: 0.01 | inactive: -0.009 | inactive: -0.041 | inactive: 0.074 | inactive: 0.005 | inactive: 0.046 | inactive: 0.013 | inactive: -0.012
7 | TRAPPC6A isoform 2 (UniProt O75865) | inactive: -0.023 | inactive: -0.011 | inactive: -0.027 | inactive: -0.037 | inactive: -0.031 | inactive: -0.052 | inactive: 0.012 | inactive: 0.008 | inactive: 0.004 | inactive: -0.062
8 | TRIM56 (UniProt Q9BRZ2) | inactive: 0.023 | inactive: 0.007 | inactive: 0.028 | inactive: 0.001 | inactive: -0.03 | inactive: 0 | inactive: 0.002 | inactive: -0.06 | inactive: 0.014 | inactive: 0.033
9 | TRIP6 (UniProt Q15654) | inactive: 0.001 | inactive: 0.02 | inactive: 0.021 | inactive: -0.006 | inactive: -0.022 | inactive: -0.033 | inactive: -0.01 | inactive: 0.066 | inactive: 0 | inactive: -0.023
10 | TRIM4 (UniProt Q9C037) | inactive: -0.11 | inactive: -0.024 | inactive: 0.034 | inactive: -0.034 | inactive: 0.029 | inactive: 0.061 | inactive: 0.03 | inactive: 0 | inactive: 0 | inactive: -0.029
11 | TTF2 (UniProt Q9UNY4) | inactive: 0.003 | inactive: -0.121 | inactive: 0.035 | inactive: -0.006 | inactive: -0.02 | inactive: 0.037 | inactive: -0.084 | inactive: -0.058 | inactive: -0.018 | inactive: -0.115
12 | TRAPPC11 (UniProt Q7Z392) | inactive: 0.019 | inactive: -0.025 | inactive: 0.059 | inactive: 0.004 | inactive: 0.012 | inactive: 0 | inactive: -0.019 | inactive: 0.072 | inactive: 0.053 | inactive: 0.021
13 | TTK (UniProt P33981) | inactive: 0.008 | inactive: 0.111 | inactive: 0.025 | inactive: -0.036 | inactive: 0.001 | inactive: 0.018 | inactive: -0.008 | inactive: -0.011 | inactive: 0.017 | inactive: 0.013
14 | TSC22D1 (UniProt Q15714) | inactive: -0.099 | inactive: -0.062 | inactive: -0.014 | inactive: 0.001 | inactive: -0.058 | inactive: 0 | inactive: -0.018 | inactive: 0.037 | inactive: -0.024 | inactive: 0.008
15 | TRMT1L (UniProt Q7Z2T5) | inactive: -0.024 | inactive: 0.016 | inactive: 0.017 | inactive: -0.009 | inactive: -0.002 | inactive: -0.027 | inactive: -0.013 | inactive: 0.003 | inactive: 0.028 | inactive: 0.022
16 | TSTA3 (UniProt Q13630) | inactive: 0.02 | inactive: 0 | inactive: -0.02 | inactive: -0.03 | inactive: -0.007 | inactive: -0.04 | inactive: -0.001 | inactive: -0.004 | inactive: -0.017 | inactive: -0.005
17 | TRIM21 (UniProt P19474) | inactive: 0.002 | inactive: 0.001 | inactive: 0.085 | inactive: 0.097 | inactive: 0.022 | inactive: -0.024 | inactive: -0.049 | inactive: 0.004 | inactive: -0.102 | inactive: -0.01
18 | TSR1 (UniProt Q2NL82) | inactive: 0 | inactive: -0.004 | inactive: 0.036 | inactive: -0.004 | inactive: 0.021 | inactive: 0.005 | inactive: -0.03 | inactive: 0.007 | inactive: 0.02 | inactive: 0.019
19 | TRAPPC12 (UniProt Q8WVT3) | inactive: 0.001 | inactive: -0.011 | inactive: 0.064 | inactive: 0.02 | inactive: -0.014 | inactive: -0.022 | inactive: -0.003 | inactive: 0.008 | inactive: -0.001 | inactive: 0.009
20 | TSC22D4 (UniProt Q9Y3Q8) | inactive: 0.045 | inactive: -0.026 | inactive: 0.026 | inactive: 0.02 | inactive: 0.005 | inactive: -0.012 | inactive: -0.012 | inactive: -0.007 | inactive: -0.001 | inactive: -0.013
21 | TRAPPC3 (UniProt O43617) | inactive: 0.049 | inactive: 0.025 | inactive: 0.045 | inactive: 0.075 | inactive: -0.015 | inactive: -0.016 | inactive: 0.02 | inactive: -0.006 | inactive: 0.031 | inactive: 0.028
22 | TTC7B isoform 2 (UniProt Q86TV6) | inactive: 0.084 | inactive: 0.138 | inactive: 0.069 | inactive: -0.054 | inactive: -0.05 | inactive: -0.14 | inactive: -0.036 | inactive: 0.01 | inactive: -0.108 | inactive: -0.003
23 | TRAPPC8 (UniProt Q9Y2L5) | inactive: -0.028 | inactive: -0.019 | inactive: 0.052 | inactive: 0.039 | inactive: -0.003 | inactive: -0.002 | inactive: -0.027 | inactive: 0.014 | inactive: 0.014 | inactive: 0.007
24 | TRAPPC5 (UniProt Q8IUR0) | inactive: -0.007 | inactive: 0.006 | inactive: 0.063 | inactive: -0.001 | inactive: -0.002 | inactive: -0.009 | inactive: 0.05 | inactive: -0.062 | inactive: 0.04 | inactive: -0.005
25 | TRAPPC6B (UniProt Q86SZ2) | inactive: 0.01 | inactive: -0.031 | inactive: 0.025 | inactive: -0.01 | inactive: -0.012 | inactive: 0.007 | inactive: -0.016 | inactive: -0.011 | inactive: -0.011 | inactive: 0.011
26 | TTC17 (UniProt Q96AE7) | inactive: 0.02 | inactive: 0.052 | inactive: 0.088 | inactive: -0.046 | inactive: -0.027 | inactive: 0.098 | inactive: -0.001 | inactive: 0.019 | inactive: 0.034 | inactive: -0.008
27 | TRMT2A (UniProt Q8IZ69) | inactive: 0.002 | inactive: 0.005 | inactive: 0.026 | inactive: -0.005 | inactive: 0.001 | inactive: 0.012 | inactive: -0.007 | inactive: -0.03 | inactive: 0.035 | inactive: 0.008
28 | TRMT112 (UniProt Q9UI30) | inactive: 0.058 | inactive: -0.011 | inactive: -0.002 | inactive: -0.011 | inactive: -0.024 | inactive: 0.009 | inactive: 0.019 | inactive: 0.043 | inactive: -0.009 | inactive: 0.029
29 | TRMT2B (UniProt Q96GJ1) | inactive: -0.001 | inactive: -0.28 | inactive: 0.062 | inactive: 0.003 | inactive: -0.033 | inactive: 0.014 | inactive: -0.037 | inactive: -0.054 | inactive: -0.004 | inactive: -0.108
30 | TTC38 (UniProt Q5R3I4) | inactive: -0.049 | inactive: 0.033 | inactive: 0.008 | inactive: 0.007 | inactive: -0.011 | inactive: 0.005 | active: 0.332 | inactive: -0.013 | inactive: 0.067 | inactive: 0.014

Full records, quoted from the list. Order of values: log2 fold change (ibrutinib) | log2 fold change [1] | log2 fold change (ralimetinib) | log2 fold change [2] | log2 fold change [3] | log2 fold change [4] | log2 fold change [5] | log2 fold change [6] | log2 fold change [7] | log2 fold change [8]
TTC7B isoform 2 (UniProt Q86TV6) in the list: inactive: 0.084 | inactive: 0.138 | inactive: 0.069 | inactive: -0.054 | inactive: -0.05 | inactive: -0.14 | inactive: -0.036 | inactive: 0.01 | inactive: -0.108 | inactive: -0.003
TSC22D4 (UniProt Q9Y3Q8) in the list: inactive: 0.045 | inactive: -0.026 | inactive: 0.026 | inactive: 0.02 | inactive: 0.005 | inactive: -0.012 | inactive: -0.012 | inactive: -0.007 | inactive: -0.001 | inactive: -0.013
